# The other results are listed elsewhere or left out.
# B1: Protectin (Homo sapiens), P13987 (protein)
# chain: MGIQGGSVLFGLLLVLAVFCHSGHSLQCYNCPNPTADCKTAVNCSSDFDACLITKAGLQVYNKCWKFEHCNFNDVTTRLRENELTYYCCKKDLCNFNEQLENGGTSLSEKTVLLLVTPFLAAAWSLHP
# How the values were obtained:
# Assay in all cases: glycan array binding signal (z-score within array); higher = stronger binding
# Conditions in all cases: glycan notation: IUPAC condensed, linker removed
# [1] = target: Fuc(a1-2)Gal(b1-4)[Fuc(a1-3)]GlcNAc
# Method in brief: (§1)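 Negative Z-scores can be read as non-binding. The Z-score is calculated within each array and then averaged across arrays of one protein sequence at different concentrations or buffers and across linkers. Arrays, 3228 in all, were curated from the Consortium for Functional Glycomics database and kept only where the protein sequence was available.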
# [2] = target: Fuc(a1-2)Gal(b1-4)[Fuc(a1-3)]GlcNAc(b1-2)Man(a1-3)[Fuc(a1-2)Gal(b1-4)[Fuc(a1-3)]GlcNAc(b1-2)Man(a1-6)]Man(b1-4)GlcNAc(b1-4)GlcNAc
# Method in brief: as §1
# [3] = target: Fuc(a1-2)Gal(b1-4)[Fuc(a1-3)]GlcNAc(b1-2)[Fuc(a1-2)Gal(b1-4)[Fuc(a1-3)]GlcNAc(b1-4)]Man(a1-3)[Fuc(a1-2)Gal(b1-4)[Fuc(a1-3)]GlcNAc(b1-2)Man(a1-6)]Man(b1-4)GlcNAc(b1-4)GlcNAc
# Method in brief: as §1
# [4] = target: Fuc(a1-2)Gal(b1-4)[Fuc(a1-3)]GlcNAc(b1-3)Gal(b1-4)[Fuc(a1-3)]GlcNAc
# Method in brief: as §1
# [5] = target: Fuc(a1-2)Gal(b1-4)[Fuc(a1-3)]GlcNAc(b1-3)Gal(b1-4)[Fuc(a1-3)]GlcNAc(b1-3)Gal(b1-4)[Fuc(a1-3)]GlcNAc
# Method in brief: as §1
# [6] = target: Fuc(a1-2)Gal(b1-4)[Fuc(a1-3)]GlcNAc(b1-3)GalNAc
# Method in brief: as §1
# Fuc(a1-2)Gal6S(b1-4)Glc = target: Fuc(a1-2)Gal6S(b1-4)Glc
# Method in brief: as §1
# [7] = target: Fuc(a1-2)Gal6S(b1-4)Glc6S
# Method in brief: as §1
# [8] = target: Fuc(a1-2)Gal6S(b1-4)GlcNAc
# Method in brief: as §1
# Fuc(a1-2)[Gal(a1-3)]Gal = target: Fuc(a1-2)[Gal(a1-3)]Gal
# Method in brief: as §1
# [9] = target: Fuc(a1-2)[Gal(a1-3)]Gal(b1-3)GalNAc
# Method in brief: as §1
# [10] = target: Fuc(a1-2)[Gal(a1-3)]Gal(b1-3)GlcNAc
# Method in brief: as §1
# [11] = target: Fuc(a1-2)[Gal(a1-3)]Gal(b1-3)GlcNAc(b1-2)Man(a1-3)[Fuc(a1-2)[Gal(a1-3)]Gal(b1-3)GlcNAc(b1-2)Man(a1-6)]Man(b1-4)GlcNAc(b1-4)GlcNAc
# Method in brief: as §1
# [12] = target: Fuc(a1-2)[Gal(a1-3)]Gal(b1-3)GlcNAc(b1-2)Man(a1-3)[Fuc(a1-2)[Gal(a1-3)]Gal(b1-3)GlcNAc(b1-2)Man(a1-6)]Man(b1-4)GlcNAc(b1-4)[Fuc(a1-6)]GlcNAc
# Method in brief: as §1
# [13] = target: Fuc(a1-2)[Gal(a1-3)]Gal(b1-3)GlcNAc(b1-3)GalNAc
# Method in brief: as §1
# [14] = target: Fuc(a1-2)[Gal(a1-3)]Gal(b1-4)Glc
# Method in brief: as §1
# [15] = target: Fuc(a1-2)[Gal(a1-3)]Gal(b1-4)GlcNAc
# Method in brief: as §1
# [16] = target: Fuc(a1-2)[Gal(a1-3)]Gal(b1-4)GlcNAc(b1-2)Man(a1-3)[Fuc(a1-2)[Gal(a1-3)]Gal(b1-4)GlcNAc(b1-2)Man(a1-6)]Man(b1-4)GlcNAc(b1-4)GlcNAc
# Method in brief: as §1
# [17] = target: Fuc(a1-2)[Gal(a1-3)]Gal(b1-4)GlcNAc(b1-2)Man(a1-3)[Fuc(a1-2)[Gal(a1-3)]Gal(b1-4)GlcNAc(b1-2)Man(a1-6)]Man(b1-4)GlcNAc(b1-4)[Fuc(a1-6)]GlcNAc
# Method in brief: as §1
# [18] = target: Fuc(a1-2)[Gal(a1-3)]Gal(b1-4)GlcNAc(b1-3)GalNAc
# Method in brief: as §1
# [19] = target: Fuc(a1-2)[Gal(a1-3)]Gal(b1-4)[Fuc(a1-3)]Glc
# Method in brief: as §1
# [20] = target: Fuc(a1-2)[Gal(a1-3)]Gal(b1-4)[Fuc(a1-3)]GlcNAc
# Method in brief: as §1
# [21] = target: Fuc(a1-2)[Gal(a1-3)]Gal(b1-4)[Fuc(a1-3)]GlcNAc(b1-3)GalNAc
# Method in brief: as §1
# [22] = target: Fuc(a1-2)[Gal(a1-4)]Gal(b1-4)GlcNAc
# Method in brief: as §1
# [23] = target: Fuc(a1-2)[GalNAc(a1-3)]Gal
# Method in brief: as §1
# [24] = target: Fuc(a1-2)[GalNAc(a1-3)]Gal(b1-3)GalNAc(a1-3)[Fuc(a1-2)]Gal(b1-4)GlcNAc
# Method in brief: as §1
# [25] = target: Fuc(a1-2)[GalNAc(a1-3)]Gal(b1-3)GlcNAc
# Method in brief: as §1
# [26] = target: Fuc(a1-2)[GalNAc(a1-3)]Gal(b1-3)GlcNAc(b1-2)Man(a1-3)[Fuc(a1-2)[GalNAc(a1-3)]Gal(b1-3)GlcNAc(b1-2)Man(a1-6)]Man(b1-4)GlcNAc(b1-4)GlcNAc
# Method in brief: as §1
# [27] = target: Fuc(a1-2)[GalNAc(a1-3)]Gal(b1-3)GlcNAc(b1-2)Man(a1-3)[Fuc(a1-2)[GalNAc(a1-3)]Gal(b1-3)GlcNAc(b1-2)Man(a1-6)]Man(b1-4)GlcNAc(b1-4)[Fuc(a1-6)]GlcNAc
# Method in brief: as §1
# [28] = target: Fuc(a1-2)[GalNAc(a1-3)]Gal(b1-3)GlcNAc(b1-3)GalNAc
# Method in brief: as §1
binder,measurement,setting,value
B1,glycan array binding signal (z-score),[1],-0.012
same,glycan array binding signal (z-score),[2],0.562
same,glycan array binding signal (z-score),[3],2.73
same,glycan array binding signal (z-score),[4],-0.347
same,glycan array binding signal (z-score),[5],-0.213
same,glycan array binding signal (z-score),[6],3.6
same,glycan array binding signal (z-score),Fuc(a1-2)Gal6S(b1-4)Glc,0.867
same,glycan array binding signal (z-score),[7],-0.108
same,glycan array binding signal (z-score),[8],-0.573
same,glycan array binding signal (z-score),Fuc(a1-2)[Gal(a1-3)]Gal,-0.623
same,glycan array binding signal (z-score),[9],0.783
same,glycan array binding signal (z-score),[10],-0.496
same,glycan array binding signal (z-score),[11],0.146
same,glycan array binding signal (z-score),[12],-0.311
same,glycan array binding signal (z-score),[13],0.172
same,glycan array binding signal (z-score),[14],-0.214
same,glycan array binding signal (z-score),[15],-0.536
same,glycan array binding signal (z-score),[16],0.763
same,glycan array binding signal (z-score),[17],-0.93
same,glycan array binding signal (z-score),[18],0.883
same,glycan array binding signal (z-score),[19],1.47
same,glycan array binding signal (z-score),[20],1.27
same,glycan array binding signal (z-score),[21],0.229
same,glycan array binding signal (z-score),[22],0.325
same,glycan array binding signal (z-score),[23],0.378
same,glycan array binding signal (z-score),[24],0.112
same,glycan array binding signal (z-score),[25],0.163
same,glycan array binding signal (z-score),[26],0.481
same,glycan array binding signal (z-score),[27],-0.237
same,glycan array binding signal (z-score),[28],0.722

# As a working copy, part of the list above.
binder,measurement,setting,value
B1,glycan array binding signal (z-score),Fuc(a1-2)[Gal(a1-3)]Gal,-0.623
same,glycan array binding signal (z-score),[9],0.783
